Read-outs that look alike come from different tables or passages of the source. No constants are given. Whether binding was seen depends on the method and setting. In cells and extracts the contact can be indirect. Some results given as binding are weak or reduced against the parent protein; the word gives no strength.
T1: TFAM (human (endogenous in HEK293T)) (UniProt Q00059)
T1 sequence: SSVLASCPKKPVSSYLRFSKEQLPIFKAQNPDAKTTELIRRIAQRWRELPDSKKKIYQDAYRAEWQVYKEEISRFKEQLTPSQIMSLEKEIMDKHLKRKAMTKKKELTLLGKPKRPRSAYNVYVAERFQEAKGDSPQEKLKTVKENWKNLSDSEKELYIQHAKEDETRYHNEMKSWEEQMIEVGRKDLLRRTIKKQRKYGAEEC

Sequences of proteins named here, by UniProt entry; tags and fusion partners are left off.
UniProt Q9UJA3: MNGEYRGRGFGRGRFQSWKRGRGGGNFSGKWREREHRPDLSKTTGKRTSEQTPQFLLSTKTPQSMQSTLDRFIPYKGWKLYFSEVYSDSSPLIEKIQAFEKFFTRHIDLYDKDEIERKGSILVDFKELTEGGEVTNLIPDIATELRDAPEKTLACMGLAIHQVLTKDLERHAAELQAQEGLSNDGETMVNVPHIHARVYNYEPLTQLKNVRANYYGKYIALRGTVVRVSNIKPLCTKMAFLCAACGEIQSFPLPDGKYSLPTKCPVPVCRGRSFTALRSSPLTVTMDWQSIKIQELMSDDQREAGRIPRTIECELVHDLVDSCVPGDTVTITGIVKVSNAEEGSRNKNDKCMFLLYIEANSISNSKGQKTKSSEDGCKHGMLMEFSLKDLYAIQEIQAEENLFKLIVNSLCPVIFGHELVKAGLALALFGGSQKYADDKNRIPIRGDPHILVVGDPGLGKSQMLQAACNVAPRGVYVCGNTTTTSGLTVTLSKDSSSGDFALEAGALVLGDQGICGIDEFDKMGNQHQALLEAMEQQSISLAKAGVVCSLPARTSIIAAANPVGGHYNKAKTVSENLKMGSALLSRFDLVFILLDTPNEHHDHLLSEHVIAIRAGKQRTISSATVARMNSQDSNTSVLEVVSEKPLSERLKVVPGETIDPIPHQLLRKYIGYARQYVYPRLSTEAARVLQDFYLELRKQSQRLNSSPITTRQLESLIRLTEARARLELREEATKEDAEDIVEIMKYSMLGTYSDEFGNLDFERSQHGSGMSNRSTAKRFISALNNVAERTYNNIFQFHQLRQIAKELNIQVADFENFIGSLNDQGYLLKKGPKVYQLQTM

B1: mtSSB (protein, UniProt Q04837 17-148)
chain: ESETTTSLVLERSLNRVHLLGRVGQDPVLRQVEGKNPVTIFSLATNEMWRSGDSEVYQLGDVSQKTTWHRISVFRPGLRDVAYQYVKKGSRIYLEGKIDYGEYMDKNNVRRQATTIIADNIIFLSDQTKEKE
B2: TFAM (protein, UniProt Q00059 43-246)
chain: SSVLASCPKKPVSSYLRFSKEQLPIFKAQNPDAKTTELIRRIAQRWRELPDSKKKIYQDAYRAEWQVYKEEISRFKEQLTPSQIMSLEKEIMDKHLKRKAMTKKKELTLLGKPKRPRSAYNVYVAERFQEAKGDSPQEKLKTVKENWKNLSDSEKELYIQHAKEDETRYHNEMKSWEEQMIEVGRKDLLRRTIKKQRKYGAEEC

What was measured:
[1] = biological target: T1, TFAM (human (endogenous in HEK293T)); test: co-IP; anti-TFAM antibody (mouse, ab119684) on 2-4 mg HEK293T cell extract, overnight at 4°C, protein G agarose; IP lysis buffer 50 mM Tris-HCl pH 7.4, 100 mM NaCl, 1 mM EDTA, 5% glycerol, 0.1% SDS, 1% NP-40; mouse IgG control; immunoblot
[2] = biological target: MCM8 (human (endogenous in HEK293T)) (UniProt Q9UJA3); test: co-IP; anti-MCM8 antibody (mouse, H00084515-M02) on 2-4 mg HEK293T cell extract, overnight at 4°C, protein G agarose; IP lysis buffer 50 mM Tris-HCl pH 7.4, 100 mM NaCl, 1 mM EDTA, 5% glycerol, 0.1% SDS, 1% NP-40; mouse IgG control; immunoblot
[3] = biological target: T1, TFAM (human (endogenous in HEK293T)); test: co-IP; anti-TFAM antibody (mouse, ab119684) on 2-4 mg HEK293T cell extract, overnight at 4°C, protein G agarose; IP lysis buffer 50 mM Tris-HCl pH 7.4, 100 mM NaCl, 1 mM EDTA, 5% glycerol, 0.1% SDS, 1% NP-40; mouse IgG control; immunoblot; remark: listed apart in the source

Row | Molecule | binding [1] | binding [2] | binding [3]
1 | MCM8 (from UniProt Q9UJA3 1-840) | binds |  | 
2 | B1 |  | no binding | binds
3 | B2 |  | binds | 

Source: article PMC9652705
